Where a name gives a salt, the structure may show the parent alone.
What was measured:
[1] = Particle size distribution by laser diffraction (Malvern apparatus); type: physicochemical; conditions: fumarate dihydrate; for Particle size d (v, 0.1): volume diameter of 10% of the particles; for Particle size d (v, 0.5): volume diameter of 50% of the particles; for Particle size d (v, 0.9): volume diameter of 90% of the particles
Description: (§1) The particle size was determined by laser diffraction using a Malvern apparatus. The parameters taken into consideration were the VD in microns of 5%, 10%, 50%, and 90% of the particles expressed as d(v,0.05), d(v,0.1), d(v, 0.5), and d(v, 0.9), respectively, which correspond to the mass diameter assuming a size independent density for the particles. The Specific Surface Area (SSA) was determined by BET nitrogen adsorption using a Coulter SA3100 apparatus as a mean of three determinations.
(§2) Different batches of formoterol fumarate dihydrate were milled in a jet mill apparatus at different operating conditions in order to obtain different particle size distribution. The micronized batches were characterised in terms of particle size distribution and Specific Surface Area as reported in Example 1.

[2] = Specific Surface Area by BET nitrogen adsorption (Coulter SA3100); type: physicochemical; conditions: mean of three determinations, fumarate dihydrate
Description: as §1, §2

Row | SMILES | Particle size d (v, 0.1) [1] [μm] | Particle size d (v, 0.5) [1] [μm] | Particle size d (v, 0.9) [1] [μm] | SSA (Specific Surface Area) [2] [m^2/g]
1 | COc1ccc(CC(C)NCC(O)c2ccc(O)c(NC=O)c2)cc1 (stereo not shown) [formoterol fumarate dihydrate batch 4, formoterol fumarate dihydrate] | 0.61 | 2.09 | 5.28 | –
2 | COc1ccc(CC(C)NCC(O)c2ccc(O)c(NC=O)c2)cc1 (stereo not shown) [formoterol fumarate dihydrate batch 3, formoterol fumarate dihydrate] | 1.66 | 2.90 | 5.02 | 5.54
3 | COc1ccc(CC(C)NCC(O)c2ccc(O)c(NC=O)c2)cc1 (stereo not shown) [formoterol fumarate dihydrate batch 2, formoterol fumarate dihydrate] | 1.68 | 2.93 | 5.08 | 5.82
4 | COc1ccc(CC(C)NCC(O)c2ccc(O)c(NC=O)c2)cc1 (stereo not shown) [formoterol fumarate dihydrate batch 5, formoterol fumarate dihydrate] | 0.60 | 2.27 | 5.14 | 7.90
5 | COc1ccc(CC(C)NCC(O)c2ccc(O)c(NC=O)c2)cc1 (stereo not shown) [formoterol fumarate dihydrate batch 1, formoterol fumarate dihydrate] | 1.41 | 2.58 | 4.60 | 5.73
